Literature values as cited in patent US20240207286A1, “ASBT INHIBITORS IN THE TREATMENT OF RENAL DISEASES” (Albireo AB, priority 2022, published 2024).
Some of these results come from one statement about several compounds together.

Settings: cited from earlier work

Row | SMILES | systemic absorption following oral administration
1 | CCCCC1(CCCC)CN(c2ccccc2)c2cc(SC)c(OCC(=O)N[C@@H](C(=O)NCC(=O)O)c3ccccc3)cc2S(=O)(=O)C1 [elobixibat, 1,1-dioxo-3,3-dibutyl-5-phenyl-7-methylthio-8-(N-{(R)-1′-phenyl-1′-[N′-(carboxymethyl)carbamoyl]-methyl}carbamoylmethoxy)-2,3,4,5-tetrahydro-1,5-benzothiazepine] | less than 10%
2 | CCCC[C@]1(CC)CS(=O)(=O)c2cc(CNC(CC(=O)O)CC(=O)O)c(OC)cc2[C@@H](c2ccccc2)N1 [linerixibat, 3-({[(3R,5R)-3-butyl-3-ethyl-7-methoxy-1,1-dioxo-5-phenyl-2,3,4,5-tetrahydro-1H-1λ^6,4-benzothiazepin-8-yl]methyl}amino)pentanedioic acid] | less than 10%
3 | CCCCC1(CCCC)CN(c2ccccc2)c2cc(SC)c(OCC(=O)N[C@@H](C(=O)N[C@@H](CC)C(=O)O)c3ccc(O)cc3)cc2S(=O)(=O)N1 [odevixibat, 1,1-dioxo-3,3-dibutyl-5-phenyl-7-methylthio-8-(N-{(R)-α-[N-((S)-1-carboxypropyl)carbamoyl]-4-hydroxybenzyl}carbamoylmethoxy)-2,3,4,5-tetrahydro-1,2,5-benzothiadiazepine] | less than 10%
4 | CCCC[C@]1(CC)CS(=O)(=O)c2ccc(N(C)C)cc2[C@@H](c2cccc(NC(=O)N[C@@H]3O[C@H](COS(=O)(=O)O)[C@@H](O)[C@H](OCc4ccccc4)[C@H]3O)c2)[C@H]1O [volixibat, N-(3-O-benzyl-6-O-sulfo-β-D-glucopyranosyl)-N′-{3-[(3S,4R,5R)-3-butyl-7-(dimethylamino)-3-ethyl-4-hydroxy-1,1-dioxo-2,3,4,5-tetrahydro-1H-1λ^6-benzothiepin-5-yl]phenyl}urea] | less than 10%
